Measurements published in the supplement of paper PMC4604168 (melanoma cell lines).
The other results are listed elsewhere or left out. Repeats are few or missing, and single values can be far off.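 Cells were imaged in 1,536-well plates, and nuclei stained with an antibody against cleaved PARP were counted against all DNA-stained nuclei to give the apoptosis fraction. Screening doses were chosen to leave most cells alive, and resting and induced cleaved-PARP levels differ strongly between cell lines.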

What was measured:
Test in all cases: cleaved PARP positive nuclei fraction relative to DMSO control; melanoma cells; higher = more apoptosis
Details in all cases: library dose: low library concentration; 72 h
MeWo = system: MeWo
RPMI7951 = system: RPMI7951
RVH-421 = system: RVH-421
SkMel28 = system: SkMel28
SkMel30 = system: SkMel30
SkMel5 = system: SkMel5
UACC257 = system: UACC257
UACC62 = system: UACC62
WM115 = system: WM115
WM1716 = system: WM1716
WM1745 = system: WM1745
WM3526 = system: WM3526
WM3619 = system: WM3619
WM451Lu = system: WM451Lu
SkMel2 = system: SkMel2

SMILES | cleaved PARP positive nuclei fraction (MeWo) [%] | cleaved PARP positive nuclei fraction (RPMI7951) [%] | cleaved PARP positive nuclei fraction (RVH-421) [%] | cleaved PARP positive nuclei fraction (SkMel28) [%] | cleaved PARP positive nuclei fraction (SkMel30) [%] | cleaved PARP positive nuclei fraction (SkMel5) [%] | cleaved PARP positive nuclei fraction (UACC257) [%] | cleaved PARP positive nuclei fraction (UACC62) [%] | cleaved PARP positive nuclei fraction (WM115) [%] | cleaved PARP positive nuclei fraction (WM1716) [%] | cleaved PARP positive nuclei fraction (WM1745) [%] | cleaved PARP positive nuclei fraction (WM3526) [%] | cleaved PARP positive nuclei fraction (WM3619) [%] | cleaved PARP positive nuclei fraction (WM451Lu) [%] | cleaved PARP positive nuclei fraction (SkMel2) [%]
Cn1nnc2c(C(N)=O)ncn2c1=O [temozolomide] + CCN(CC)CCCCNc1ncc2cc(-c3cc(OC)cc(OC)c3)c(NC(=O)NC(C)(C)C)nc2n1 [PD173074] (first compound 2 µM, partner dose 0.1 µM) | 134 | 87.1 | 82.2 | 44 | 118 | 169 | 159 | 87.7 | 141 | 185 | 102 | 64.5 | 80.3 | 340 | –
Nc1cccc2c1CN(C1CCC(=O)NC1=O)C2=O (stereo not drawn) [lenalidomide] + Oc1cc(-c2nc(-c3ccccc3)[nH]c2-c2ccncc2)ccc1Cl [L779450] (first compound 1 µM, partner dose 0.2 µM) | 76.9 | 90.6 | 138 | 91.2 | 16.5 | 112 | 137 | 70.1 | 80 | 79.9 | 115 | 165 | 97 | 181 | –
NC(=O)Nc1cc(-c2cccc(F)c2)sc1C(=O)N[C@H]1CCCNC1 + CCN(CC)CCCCNc1ncc2cc(-c3cc(OC)cc(OC)c3)c(NC(=O)NC(C)(C)C)nc2n1 [PD173074] (first compound 0.02 µM, partner dose 0.1 µM) | 194 | 103 | 70.5 | 49.5 | 42.2 | 141 | 47.7 | 314 | 139 | 57.3 | 101 | 100 | 371 | 133 | –
Cc1cc(N2CCOCC2)cc2[nH]c(-c3c(NC[C@@H](O)c4cccc(Cl)c4)cc[nH]c3=O)nc12 + CC(C)CCN1c2nc(Nc3cc(F)c(O)c(F)c3)ncc2N(C)C(=O)C1C [BID1870] (first compound 0.2 µM, partner dose 0.2 µM) | 103 | 49.7 | 77.1 | 96.8 | 58.6 | 60 | 117 | 76.3 | 126 | 63 | 130 | 116 | 90.9 | 108 | –
C=CCNC1=C2C[C@@H](C)C[C@H](OC)[C@H](O)[C@@H](C)/C=C(\C)[C@H](OC(N)=O)[C@@H](OC)/C=C\C=C(/C)C(=O)NC(=CC1=O)C2=O [Tanespimycin] + Cn1nnc2c(C(N)=O)ncn2c1=O [temozolomide] (first compound 0.002 µM, partner dose 2 µM) | 114 | 64.9 | 78.4 | 85.9 | 27.2 | – | – | 185 | 169 | 82 | 110 | 104 | 126 | 96.8 | 77.2
Cc1cc(N2CCOCC2)cc2[nH]c(-c3c(NC[C@@H](O)c4cccc(Cl)c4)cc[nH]c3=O)nc12 + Oc1nc(-c2ccc(C(F)(F)F)cc2)nc2c1CSCC2 [XAV939] (first compound 0.2 µM, partner dose 2 µM) | 106 | 130 | 94.4 | 129 | 98.3 | 62.1 | 88.3 | 80.7 | 62.9 | 169 | 160 | 75 | 200 | 80.8 | –
